Data published in publication PMC1937012.

Molecular target: T1, Sum1p (S. cerevisiae) (UniProt P46676)
T1 sequence: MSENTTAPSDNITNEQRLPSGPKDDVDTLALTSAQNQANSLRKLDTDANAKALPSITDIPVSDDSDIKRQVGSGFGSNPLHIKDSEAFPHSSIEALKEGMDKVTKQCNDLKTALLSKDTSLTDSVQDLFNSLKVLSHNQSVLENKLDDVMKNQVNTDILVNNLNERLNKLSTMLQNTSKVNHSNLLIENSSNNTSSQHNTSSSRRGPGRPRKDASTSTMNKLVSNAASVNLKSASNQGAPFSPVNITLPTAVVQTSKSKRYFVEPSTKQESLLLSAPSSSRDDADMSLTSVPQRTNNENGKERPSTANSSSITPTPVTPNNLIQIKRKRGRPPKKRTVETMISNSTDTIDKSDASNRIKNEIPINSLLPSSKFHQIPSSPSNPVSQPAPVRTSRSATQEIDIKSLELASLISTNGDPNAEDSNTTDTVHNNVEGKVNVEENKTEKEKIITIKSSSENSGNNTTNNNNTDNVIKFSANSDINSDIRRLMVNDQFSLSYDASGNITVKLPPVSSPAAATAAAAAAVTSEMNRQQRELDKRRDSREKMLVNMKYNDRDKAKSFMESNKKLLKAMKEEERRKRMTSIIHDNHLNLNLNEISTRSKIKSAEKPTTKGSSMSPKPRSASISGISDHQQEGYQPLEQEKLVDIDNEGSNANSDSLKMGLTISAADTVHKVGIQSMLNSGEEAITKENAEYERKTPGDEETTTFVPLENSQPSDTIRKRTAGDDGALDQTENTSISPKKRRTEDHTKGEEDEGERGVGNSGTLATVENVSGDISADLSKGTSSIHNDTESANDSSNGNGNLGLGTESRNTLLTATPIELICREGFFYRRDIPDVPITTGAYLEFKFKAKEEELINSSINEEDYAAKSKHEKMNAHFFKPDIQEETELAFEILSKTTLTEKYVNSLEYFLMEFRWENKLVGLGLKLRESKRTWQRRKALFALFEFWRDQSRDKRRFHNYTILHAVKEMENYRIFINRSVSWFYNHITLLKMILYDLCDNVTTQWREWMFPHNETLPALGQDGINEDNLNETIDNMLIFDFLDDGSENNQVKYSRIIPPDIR
Experiment: co-IP; Sum1p immunoprecipitated with guinea pig anti-Sum1p serum and protein A agarose from yeast whole-cell lysates, 4 °C; blot with anti-HA; strains HST1-HA (LRY558), hst1Δ (LRY198) or hst1Δ sir2Δ (LRY333) with plasmids

Substance: HA-KlSir2p (K. lactis) (enzyme)
- binding: binds

No constants are given. Whether binding was seen depends on the method and setting. In cells and extracts the contact can be indirect. Binding calls can cover weak binding; strength is not graded here.
